This is one part of the list.
These targets were tested with NC1(c2ccc(-c3nc4ccn5c(=O)[nH]nc5c4cc3-c3ccccc3)cc2)CCC1 (assay: log2 fold change, soluble protein after heating vs DMSO (PISA); higher = thermal stabilisation; K562 lysate, 10 uM; active = over 0.2 and 3.5 SD of the protein, either way, in both replicates (recomputed)).
Summary of the method: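 Pellets of K562 cells were dounce-homogenised in PBS pH 7.4 with 1 mM MgCl2, and the crude extract was held at 1 mg/mL protein for a 30 min treatment with 10 μM compound. Aliquots were heated for 3 min over 48°C-58°C and pooled before NP-40 was added to 0.5% at 4°C. The supernatant from 21,000xg for 90 min was quantified by TMTpro 16plex LC-MS/MS with channel sums equalised. Values are reported from duplicates as log-two fold change in thermal stability relative to solvent controls.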

The chains behind the UniProt entries cited, without tags or fusion partners. Where a name states a change or a piece, a line headed by the entry shows the natural chain unless it says otherwise.
UniProt O15379: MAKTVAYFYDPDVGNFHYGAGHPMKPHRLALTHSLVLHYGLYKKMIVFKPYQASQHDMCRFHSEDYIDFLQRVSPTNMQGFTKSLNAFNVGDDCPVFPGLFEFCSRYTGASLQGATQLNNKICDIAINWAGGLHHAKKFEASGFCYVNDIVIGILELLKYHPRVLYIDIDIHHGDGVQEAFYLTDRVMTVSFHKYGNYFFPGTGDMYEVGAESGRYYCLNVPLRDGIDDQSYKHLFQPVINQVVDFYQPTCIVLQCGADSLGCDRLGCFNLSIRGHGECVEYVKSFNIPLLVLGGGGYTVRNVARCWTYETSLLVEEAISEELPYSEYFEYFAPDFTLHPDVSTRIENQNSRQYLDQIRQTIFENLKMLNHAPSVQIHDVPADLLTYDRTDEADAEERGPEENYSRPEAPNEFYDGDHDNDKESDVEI
UniProt Q13889: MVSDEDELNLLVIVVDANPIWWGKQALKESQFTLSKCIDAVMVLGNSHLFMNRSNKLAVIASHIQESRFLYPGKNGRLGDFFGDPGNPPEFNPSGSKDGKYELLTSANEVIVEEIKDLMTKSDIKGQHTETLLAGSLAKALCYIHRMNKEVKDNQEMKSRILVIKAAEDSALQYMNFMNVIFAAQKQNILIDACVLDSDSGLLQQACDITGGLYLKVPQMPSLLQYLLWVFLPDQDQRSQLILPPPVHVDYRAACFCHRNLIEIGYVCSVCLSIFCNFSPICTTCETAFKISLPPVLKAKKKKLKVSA
UniProt Q9UBN7: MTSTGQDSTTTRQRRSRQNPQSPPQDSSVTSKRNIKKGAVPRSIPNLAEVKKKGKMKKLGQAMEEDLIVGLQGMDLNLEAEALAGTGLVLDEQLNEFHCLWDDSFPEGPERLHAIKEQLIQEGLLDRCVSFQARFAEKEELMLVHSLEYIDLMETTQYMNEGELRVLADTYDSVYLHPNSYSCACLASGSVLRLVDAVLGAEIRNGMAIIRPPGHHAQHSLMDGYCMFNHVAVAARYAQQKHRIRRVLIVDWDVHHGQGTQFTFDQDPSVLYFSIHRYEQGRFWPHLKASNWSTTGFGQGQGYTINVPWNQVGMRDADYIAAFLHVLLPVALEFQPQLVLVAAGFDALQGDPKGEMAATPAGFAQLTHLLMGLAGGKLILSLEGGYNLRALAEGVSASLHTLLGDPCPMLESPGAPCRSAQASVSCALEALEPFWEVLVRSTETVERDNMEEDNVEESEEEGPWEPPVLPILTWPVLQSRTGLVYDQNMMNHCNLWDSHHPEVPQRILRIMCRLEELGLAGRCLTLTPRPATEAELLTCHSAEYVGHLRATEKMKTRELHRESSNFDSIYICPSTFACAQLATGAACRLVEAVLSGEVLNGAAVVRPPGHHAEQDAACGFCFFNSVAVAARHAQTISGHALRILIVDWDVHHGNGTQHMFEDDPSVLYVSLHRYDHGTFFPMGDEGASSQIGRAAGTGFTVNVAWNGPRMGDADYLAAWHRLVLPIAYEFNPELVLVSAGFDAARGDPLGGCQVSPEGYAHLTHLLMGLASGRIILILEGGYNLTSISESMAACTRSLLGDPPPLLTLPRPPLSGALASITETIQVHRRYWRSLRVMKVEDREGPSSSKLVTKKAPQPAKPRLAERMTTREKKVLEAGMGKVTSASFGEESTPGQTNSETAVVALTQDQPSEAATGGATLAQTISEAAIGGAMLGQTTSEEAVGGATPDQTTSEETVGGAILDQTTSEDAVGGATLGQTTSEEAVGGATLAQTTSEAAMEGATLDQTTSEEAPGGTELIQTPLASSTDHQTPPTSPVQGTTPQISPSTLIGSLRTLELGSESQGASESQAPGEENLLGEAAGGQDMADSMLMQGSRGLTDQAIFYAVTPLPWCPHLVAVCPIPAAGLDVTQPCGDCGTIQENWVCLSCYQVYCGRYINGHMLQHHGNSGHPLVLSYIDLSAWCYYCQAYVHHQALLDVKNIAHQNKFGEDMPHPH
UniProt Q9Y450, whole entry, looked up: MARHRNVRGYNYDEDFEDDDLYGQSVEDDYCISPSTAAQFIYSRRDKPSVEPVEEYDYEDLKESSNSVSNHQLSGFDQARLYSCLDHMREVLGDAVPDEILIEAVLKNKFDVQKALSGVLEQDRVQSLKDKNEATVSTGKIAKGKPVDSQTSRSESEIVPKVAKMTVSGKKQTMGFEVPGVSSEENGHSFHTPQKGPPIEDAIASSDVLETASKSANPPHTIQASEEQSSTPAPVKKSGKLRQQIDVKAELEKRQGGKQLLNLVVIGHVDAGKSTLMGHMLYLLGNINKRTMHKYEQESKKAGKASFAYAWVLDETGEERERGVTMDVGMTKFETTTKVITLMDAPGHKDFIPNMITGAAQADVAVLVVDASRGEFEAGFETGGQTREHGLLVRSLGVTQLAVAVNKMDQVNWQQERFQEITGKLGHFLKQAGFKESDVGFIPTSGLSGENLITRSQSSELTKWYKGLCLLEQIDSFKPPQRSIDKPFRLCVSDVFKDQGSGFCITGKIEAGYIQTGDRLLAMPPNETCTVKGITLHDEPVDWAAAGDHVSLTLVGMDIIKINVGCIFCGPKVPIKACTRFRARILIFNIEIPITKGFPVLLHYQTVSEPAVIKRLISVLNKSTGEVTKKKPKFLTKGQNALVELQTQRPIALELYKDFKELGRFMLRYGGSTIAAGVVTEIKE
UniProt Q9UBQ7: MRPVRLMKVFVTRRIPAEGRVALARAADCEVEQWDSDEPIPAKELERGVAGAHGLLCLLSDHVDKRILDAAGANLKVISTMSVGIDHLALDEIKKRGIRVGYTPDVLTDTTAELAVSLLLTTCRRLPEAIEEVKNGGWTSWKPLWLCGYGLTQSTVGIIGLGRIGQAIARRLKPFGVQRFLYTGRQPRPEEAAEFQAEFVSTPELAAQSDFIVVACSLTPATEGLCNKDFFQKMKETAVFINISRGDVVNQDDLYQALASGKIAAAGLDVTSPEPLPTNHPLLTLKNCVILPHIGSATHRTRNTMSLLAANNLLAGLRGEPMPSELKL
UniProt Q68CZ6: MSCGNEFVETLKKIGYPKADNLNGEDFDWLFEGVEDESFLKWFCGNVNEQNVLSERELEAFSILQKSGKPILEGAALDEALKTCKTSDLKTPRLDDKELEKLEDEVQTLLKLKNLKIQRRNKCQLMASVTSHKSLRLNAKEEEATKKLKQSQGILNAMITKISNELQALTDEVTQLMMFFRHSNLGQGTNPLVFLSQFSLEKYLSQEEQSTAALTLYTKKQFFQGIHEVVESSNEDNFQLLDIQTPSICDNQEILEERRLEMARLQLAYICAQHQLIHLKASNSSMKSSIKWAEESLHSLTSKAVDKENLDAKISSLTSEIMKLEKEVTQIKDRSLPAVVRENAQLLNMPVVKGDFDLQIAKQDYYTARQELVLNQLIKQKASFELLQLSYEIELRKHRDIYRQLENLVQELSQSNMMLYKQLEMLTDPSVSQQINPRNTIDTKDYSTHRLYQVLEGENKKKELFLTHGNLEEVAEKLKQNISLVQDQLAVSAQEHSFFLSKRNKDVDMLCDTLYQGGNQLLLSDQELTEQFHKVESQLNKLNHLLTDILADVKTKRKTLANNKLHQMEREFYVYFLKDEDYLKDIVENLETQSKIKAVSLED
UniProt Q969F1: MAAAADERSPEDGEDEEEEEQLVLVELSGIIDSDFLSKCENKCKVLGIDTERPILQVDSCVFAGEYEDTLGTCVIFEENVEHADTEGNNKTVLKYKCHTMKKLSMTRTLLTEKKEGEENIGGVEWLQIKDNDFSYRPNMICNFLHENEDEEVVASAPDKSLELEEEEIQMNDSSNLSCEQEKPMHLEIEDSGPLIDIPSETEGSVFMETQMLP
UniProt P52655, whole entry, looked up: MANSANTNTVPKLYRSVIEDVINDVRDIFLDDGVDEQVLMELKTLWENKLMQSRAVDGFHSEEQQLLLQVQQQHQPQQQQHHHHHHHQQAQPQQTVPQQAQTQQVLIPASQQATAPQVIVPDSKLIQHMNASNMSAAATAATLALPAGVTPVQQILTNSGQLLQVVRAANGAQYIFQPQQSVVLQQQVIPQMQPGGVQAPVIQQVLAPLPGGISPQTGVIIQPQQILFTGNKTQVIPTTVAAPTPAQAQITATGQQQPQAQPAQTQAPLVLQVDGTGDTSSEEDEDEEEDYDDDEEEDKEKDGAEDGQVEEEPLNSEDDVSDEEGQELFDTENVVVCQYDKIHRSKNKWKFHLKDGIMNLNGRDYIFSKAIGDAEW
UniProt P0C0S5, whole entry, looked up: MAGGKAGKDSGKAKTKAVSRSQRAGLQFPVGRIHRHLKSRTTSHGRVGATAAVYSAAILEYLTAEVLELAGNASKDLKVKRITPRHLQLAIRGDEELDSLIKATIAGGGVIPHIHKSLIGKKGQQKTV
UniProt Q4G148: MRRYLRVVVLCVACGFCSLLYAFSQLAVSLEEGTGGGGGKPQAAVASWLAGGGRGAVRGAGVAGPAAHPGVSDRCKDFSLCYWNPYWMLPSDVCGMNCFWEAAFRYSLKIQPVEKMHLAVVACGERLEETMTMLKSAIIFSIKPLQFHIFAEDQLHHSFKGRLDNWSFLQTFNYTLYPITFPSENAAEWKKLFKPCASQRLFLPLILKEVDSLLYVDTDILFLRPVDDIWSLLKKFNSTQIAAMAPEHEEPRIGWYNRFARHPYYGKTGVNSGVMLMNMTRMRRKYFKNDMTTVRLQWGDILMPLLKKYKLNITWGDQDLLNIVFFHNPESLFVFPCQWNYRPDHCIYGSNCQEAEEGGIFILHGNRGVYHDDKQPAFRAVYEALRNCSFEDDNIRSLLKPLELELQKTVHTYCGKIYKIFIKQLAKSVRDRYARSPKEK
UniProt Q9H0R4: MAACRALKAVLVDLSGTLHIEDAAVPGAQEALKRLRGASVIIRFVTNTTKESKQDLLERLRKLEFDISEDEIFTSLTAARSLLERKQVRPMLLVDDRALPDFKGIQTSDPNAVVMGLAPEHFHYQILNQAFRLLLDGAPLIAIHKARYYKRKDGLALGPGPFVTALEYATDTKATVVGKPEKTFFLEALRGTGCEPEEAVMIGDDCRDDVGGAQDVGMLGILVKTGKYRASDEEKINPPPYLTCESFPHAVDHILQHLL
UniProt Q13547, whole entry, looked up: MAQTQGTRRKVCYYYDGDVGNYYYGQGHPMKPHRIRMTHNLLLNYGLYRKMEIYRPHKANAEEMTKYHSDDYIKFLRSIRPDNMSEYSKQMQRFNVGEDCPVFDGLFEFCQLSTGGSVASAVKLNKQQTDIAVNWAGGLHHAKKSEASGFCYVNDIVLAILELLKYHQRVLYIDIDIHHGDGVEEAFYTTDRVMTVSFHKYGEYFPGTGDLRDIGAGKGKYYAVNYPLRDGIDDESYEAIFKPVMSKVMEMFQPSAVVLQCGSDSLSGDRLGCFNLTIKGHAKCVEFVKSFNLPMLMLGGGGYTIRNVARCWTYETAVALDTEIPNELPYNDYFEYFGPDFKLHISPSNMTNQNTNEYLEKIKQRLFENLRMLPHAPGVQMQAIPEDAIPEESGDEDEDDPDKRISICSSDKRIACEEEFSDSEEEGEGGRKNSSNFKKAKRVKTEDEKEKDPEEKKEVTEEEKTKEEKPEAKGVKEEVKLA
UniProt P29084: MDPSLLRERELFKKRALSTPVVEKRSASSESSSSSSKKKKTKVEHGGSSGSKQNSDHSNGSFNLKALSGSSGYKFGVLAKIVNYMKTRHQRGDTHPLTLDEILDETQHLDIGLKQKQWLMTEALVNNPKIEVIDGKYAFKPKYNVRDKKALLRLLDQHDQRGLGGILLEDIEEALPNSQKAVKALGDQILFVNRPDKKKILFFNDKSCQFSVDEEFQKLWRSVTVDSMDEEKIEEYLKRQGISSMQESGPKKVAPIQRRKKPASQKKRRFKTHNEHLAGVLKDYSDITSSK
UniProt Q9BQ67, whole entry, looked up: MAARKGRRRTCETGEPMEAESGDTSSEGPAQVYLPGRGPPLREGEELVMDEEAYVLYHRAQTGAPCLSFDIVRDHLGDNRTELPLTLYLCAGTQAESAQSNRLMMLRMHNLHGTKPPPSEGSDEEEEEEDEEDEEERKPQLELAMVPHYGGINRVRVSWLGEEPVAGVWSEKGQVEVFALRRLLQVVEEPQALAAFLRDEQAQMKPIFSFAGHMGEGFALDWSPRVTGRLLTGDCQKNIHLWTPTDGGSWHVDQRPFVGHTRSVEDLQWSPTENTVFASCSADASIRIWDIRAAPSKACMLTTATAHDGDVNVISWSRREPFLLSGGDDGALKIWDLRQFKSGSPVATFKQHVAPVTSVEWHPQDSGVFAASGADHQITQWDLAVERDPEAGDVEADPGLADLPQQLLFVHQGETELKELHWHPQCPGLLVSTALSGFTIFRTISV

log2 fold change, inactive:
HDAC3 (UniProt O15379) -0.049, GTF2H3 (UniProt Q13889) 0.033, HDAC6 (UniProt Q9UBN7) -0.027, HBS1L isoform 2 (UniProt Q9Y450) -0.008, GRHPR (UniProt Q9UBQ7) 0.007, HAUS3 (UniProt Q68CZ6) -0.038, GTF3C6 (UniProt Q969F1) -0.021, GTF2A1 (UniProt P52655) -0.012, H2AZ1 (UniProt P0C0S5) 0.009, GXYLT1 (UniProt Q4G148) -0.021, HDHD2 (UniProt Q9H0R4) 0.05, HDAC1 (UniProt Q13547) 0.009, HEATR5A (UniProt Q86XA9) -0.033, GTF2E2 (UniProt P29084) 0.033, GRWD1 (UniProt Q9BQ67) -0.058

— the supplement of paper PMC10849652
